Consider 1 substance from patent US20140356285A1, “COMPOSITIONS AND METHODS RELATED TO TISSUE TARGETING” (THE BOARD OF REGENTS OF THE UNIVERSITY OF TEXAS SYSTEM, priority 2011, published 2014).

Protein sequences, listed by entry. Tags and fused reporters are not part of them. Residues count along the entry.
UniProt Q15109, residues 23-342: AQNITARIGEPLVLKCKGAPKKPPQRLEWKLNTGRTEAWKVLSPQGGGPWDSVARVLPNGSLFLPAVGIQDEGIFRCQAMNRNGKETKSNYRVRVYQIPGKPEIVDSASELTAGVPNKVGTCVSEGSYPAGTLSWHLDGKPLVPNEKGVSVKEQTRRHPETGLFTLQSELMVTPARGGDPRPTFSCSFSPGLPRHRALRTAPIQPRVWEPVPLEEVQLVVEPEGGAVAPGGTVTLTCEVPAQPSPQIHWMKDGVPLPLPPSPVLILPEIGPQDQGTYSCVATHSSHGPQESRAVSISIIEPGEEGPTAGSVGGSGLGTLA

Results are given in words; binding and its absence hold for the method and conditions named. Some entries that bind do so weakly or less than the wild type.

Assay [1] has as its target T1, human leukocyte proteinase-3 (PR-3) (human, UniProt P24158 28-248).
T1 construct: In the ELISAs the PR-3 was bought (Sigma); also called active PR-3; endogenous PR-3
T1 chain: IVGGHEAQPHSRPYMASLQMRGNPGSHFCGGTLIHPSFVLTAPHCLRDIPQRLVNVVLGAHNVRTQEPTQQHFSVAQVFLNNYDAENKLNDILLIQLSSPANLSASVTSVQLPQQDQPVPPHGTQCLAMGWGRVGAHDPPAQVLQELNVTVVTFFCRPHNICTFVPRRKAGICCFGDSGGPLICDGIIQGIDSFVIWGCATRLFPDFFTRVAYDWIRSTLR
The assay is described as follows: ELISA on immobilized PR-3.

In assay [2] the target is T1, human leukocyte proteinase-3 (PR-3). The assay is described as follows: ELISA on immobilized PR-3, RAGE-Fc titrated.

Regarding “RAGE-Fc (from UniProt Q15109 23-342) (Fc fusion)”, the binding entry in assay [1] and in assay [2] was “binds” in each case.
